In article PMC12589423:
These are yes or no findings as the source states them, for the method shown. In cells and extracts the contact can be indirect. A yes stands for co-enrichment or nearness to the bait. Other partners may have been found.

By UniProt entry, the sequences of proteins in these tests, tags left out.
UniProt O95573: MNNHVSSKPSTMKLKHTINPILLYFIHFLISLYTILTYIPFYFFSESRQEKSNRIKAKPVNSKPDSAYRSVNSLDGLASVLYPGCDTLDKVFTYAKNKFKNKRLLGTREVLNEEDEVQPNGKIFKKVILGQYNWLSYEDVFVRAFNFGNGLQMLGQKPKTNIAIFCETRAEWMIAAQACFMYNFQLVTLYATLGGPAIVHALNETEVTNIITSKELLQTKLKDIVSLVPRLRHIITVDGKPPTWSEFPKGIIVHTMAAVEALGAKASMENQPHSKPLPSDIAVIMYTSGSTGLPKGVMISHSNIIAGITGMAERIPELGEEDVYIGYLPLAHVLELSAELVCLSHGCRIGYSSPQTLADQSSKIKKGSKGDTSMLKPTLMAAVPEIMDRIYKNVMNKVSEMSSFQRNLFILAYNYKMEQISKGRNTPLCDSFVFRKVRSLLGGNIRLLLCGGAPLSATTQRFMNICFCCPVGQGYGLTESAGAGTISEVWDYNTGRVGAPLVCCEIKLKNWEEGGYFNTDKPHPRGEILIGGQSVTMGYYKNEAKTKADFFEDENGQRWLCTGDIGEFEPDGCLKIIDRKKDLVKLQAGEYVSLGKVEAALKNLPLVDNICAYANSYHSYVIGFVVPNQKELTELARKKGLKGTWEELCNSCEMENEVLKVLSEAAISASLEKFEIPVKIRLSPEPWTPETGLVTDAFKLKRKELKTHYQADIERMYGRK

Biological target: T1, TMEM166 (bait of the immunoprecipitation-mass spectrometry) (UniProt Q9H8M9)
T1 sequence: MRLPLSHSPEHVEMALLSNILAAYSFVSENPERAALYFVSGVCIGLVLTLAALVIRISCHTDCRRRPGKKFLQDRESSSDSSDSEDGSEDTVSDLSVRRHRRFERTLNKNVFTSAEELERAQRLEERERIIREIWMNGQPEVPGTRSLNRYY
Test: affinity purification with mass spectrometry; immunoprecipitation of TMEM166 followed by mass spectrometry; cells and conditions not told

Question: With “ACSL3 (hit of the immunoprecipitation-mass spectrometry) (from UniProt O95573 1-720)” as the substance, how does the binding read?
Answer: The binding was “binds”.
